PubChem BioAssay AID743121 – NCATS | 2013
This is a random part of about 26,000 deposited reagents. Over the whole deposit, 167 (0.63%) are marked active. 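Calls are per gene from RSA p-values that are not deposited; an individual active-marked siRNA can sensitise only weakly.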 The numbers tell different reagents against one gene apart. Not all columns of the deposit are shown.

Test: 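Knock-downs that sensitise breast cancer cells to camptothecin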 (primary screen)
System: MDA-MB-231 cells, a human breast cancer line
Reagents: single siRNA against human genes, 20 nM siRNA (0.8 pmol per well)
Time to read-out: 120 h (drug added 48 h after transfection, read 72 h later)
Treatment: camptothecin 20 nM (about EC30) for 72 h; vehicle 0.1% DMSO in parallel plates
Measurement: 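Cell viability by ATP luminescence (CellTiter-Glo) as % of non-targeting siRNA wells, and the log2 ratio of viability without drug over viability with camptothecin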
Scale: log2 vehicle/camptothecin viability: higher = stronger sensitisation to camptothecin
Call rule: 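Active genes have an RSA gene-level p-value below 0.001, computed from the ratios of their separate siRNAs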

PON1 (paraoxonase 1) #1 — log2 vehicle/camptothecin viability = -0.0071; activity call = inactive
PON1 (paraoxonase 1) #2 — log2 vehicle/camptothecin viability = 0.0344; activity call = inactive
PON1 (paraoxonase 1) #3 — log2 vehicle/camptothecin viability = -0.305; activity call = inactive
PON1 (paraoxonase 1) #4 — log2 vehicle/camptothecin viability = -0.0985; activity call = inactive
SLC7A13 #1 — log2 vehicle/camptothecin viability = -0.142; activity call = inactive
SLC7A13 #2 — log2 vehicle/camptothecin viability = -0.285; activity call = inactive
SLC7A13 #3 — log2 vehicle/camptothecin viability = 0.0569; activity call = inactive
SLC7A13 #4 — log2 vehicle/camptothecin viability = -0.139; activity call = inactive
LYVE1 (lymphatic vessel endothelial hyaluronan receptor 1) #1 — log2 vehicle/camptothecin viability = -0.0877; activity call = inactive
LYVE1 (lymphatic vessel endothelial hyaluronan receptor 1) #2 — log2 vehicle/camptothecin viability = -0.401; activity call = inactive
LYVE1 (lymphatic vessel endothelial hyaluronan receptor 1) #3 — log2 vehicle/camptothecin viability = -0.0704; activity call = inactive
LYVE1 (lymphatic vessel endothelial hyaluronan receptor 1) #4 — log2 vehicle/camptothecin viability = -0.00617; activity call = inactive
EGR2 (early growth response 2) #1 — log2 vehicle/camptothecin viability = 0.12; activity call = inactive
EGR2 (early growth response 2) #2 — log2 vehicle/camptothecin viability = 0.0478; activity call = inactive
EGR2 (early growth response 2) #3 — log2 vehicle/camptothecin viability = -0.187; activity call = inactive
EGR2 (early growth response 2) #4 — log2 vehicle/camptothecin viability = 0.0285; activity call = inactive

Targets listed so far whose gene name starts with E or e:
EGR2 (early growth response 2) #1 — log2 vehicle/camptothecin viability = 0.12; activity call = inactive
EGR2 (early growth response 2) #2 — log2 vehicle/camptothecin viability = 0.0478; activity call = inactive
EGR2 (early growth response 2) #3 — log2 vehicle/camptothecin viability = -0.187; activity call = inactive
EGR2 (early growth response 2) #4 — log2 vehicle/camptothecin viability = 0.0285; activity call = inactive

Additional reagents follow.
WNT1 (Wnt family member 1) #1 — log2 vehicle/camptothecin viability = -0.318; activity call = inactive
WNT1 (Wnt family member 1) #2 — log2 vehicle/camptothecin viability = -0.152; activity call = inactive
WNT1 (Wnt family member 1) #3 — log2 vehicle/camptothecin viability = -0.496; activity call = inactive
DLG2 (discs large MAGUK scaffold protein 2) #1 — log2 vehicle/camptothecin viability = -0.753; activity call = inactive
DLG2 (discs large MAGUK scaffold protein 2) #2 — log2 vehicle/camptothecin viability = -0.0487; activity call = inactive
DLG2 (discs large MAGUK scaffold protein 2) #3 — log2 vehicle/camptothecin viability = 0.137; activity call = inactive
DLG2 (discs large MAGUK scaffold protein 2) #4 — log2 vehicle/camptothecin viability = -0.158; activity call = inactive
RC3H1 (ring finger and CCCH-type domains 1) #1 — log2 vehicle/camptothecin viability = -0.475; activity call = inactive
RC3H1 (ring finger and CCCH-type domains 1) #2 — log2 vehicle/camptothecin viability = 0.0381; activity call = inactive
RC3H1 (ring finger and CCCH-type domains 1) #3 — log2 vehicle/camptothecin viability = -0.263; activity call = inactive
RC3H1 (ring finger and CCCH-type domains 1) #4 — log2 vehicle/camptothecin viability = -0.197; activity call = inactive
MAP3K7 (mitogen-activated protein kinase kinase kinase 7) #1 — log2 vehicle/camptothecin viability = 2.98; activity call = active
MAP3K7 (mitogen-activated protein kinase kinase kinase 7) #2 — log2 vehicle/camptothecin viability = 0.368; activity call = active
MAP3K7 (mitogen-activated protein kinase kinase kinase 7) #3 — log2 vehicle/camptothecin viability = 1.14; activity call = active
MAP3K7 (mitogen-activated protein kinase kinase kinase 7) #4 — log2 vehicle/camptothecin viability = 1.38; activity call = active
NFKBIE (NFKB inhibitor epsilon) #1 — log2 vehicle/camptothecin viability = -0.294; activity call = inactive
NFKBIE (NFKB inhibitor epsilon) #2 — log2 vehicle/camptothecin viability = -0.265; activity call = inactive
NFKBIE (NFKB inhibitor epsilon) #3 — log2 vehicle/camptothecin viability = 0.535; activity call = inactive
ABCB9 (ATP binding cassette subfamily B member 9) #1 — log2 vehicle/camptothecin viability = 0.568; activity call = inactive
ABCB9 (ATP binding cassette subfamily B member 9) #2 — log2 vehicle/camptothecin viability = -0.0139; activity call = inactive
ABCB9 (ATP binding cassette subfamily B member 9) #3 — log2 vehicle/camptothecin viability = -0.177; activity call = inactive
ABCB9 (ATP binding cassette subfamily B member 9) #4 — log2 vehicle/camptothecin viability = -0.256; activity call = inactive
